These are yes or no findings as the source states them, for the method shown. Some binding calls cover weakened binding; strength is not graded here.
Target: human interleukin-7 receptor (IL-7R) (human) (UniProt P16871)
Experiment: flow cytometry on NALM6 and REH cells (FIG. 5, humanized clone)

Amino acid sequences for entries named in this document (tags omitted). Residues count along the entry.
UniProt P16871, residues 21-459: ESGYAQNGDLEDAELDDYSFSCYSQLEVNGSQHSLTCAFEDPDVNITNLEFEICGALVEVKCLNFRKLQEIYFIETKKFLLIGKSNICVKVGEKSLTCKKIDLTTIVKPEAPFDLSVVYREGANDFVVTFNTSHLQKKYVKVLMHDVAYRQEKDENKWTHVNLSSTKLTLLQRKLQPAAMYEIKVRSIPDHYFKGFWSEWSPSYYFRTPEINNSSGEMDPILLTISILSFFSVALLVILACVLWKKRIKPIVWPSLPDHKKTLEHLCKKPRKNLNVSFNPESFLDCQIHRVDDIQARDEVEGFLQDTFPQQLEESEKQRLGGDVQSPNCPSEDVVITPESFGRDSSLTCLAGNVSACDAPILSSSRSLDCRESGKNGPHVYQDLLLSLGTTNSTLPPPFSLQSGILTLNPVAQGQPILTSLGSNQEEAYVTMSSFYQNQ

- binding: binds
B1: humanized anti-human IL-7R antibody clone 577 in the IgG1 format (antibody, V domains shown)
VH: EVQLVQSGAEVKKPGASVKVSCTVSGYTIKDTYIHWVKQAPEQGLEWMGRIDPASDDTKYDPKFQGKVTLTADTSINTAYLQLSSLTSEDTAVYYCVRRVYDYLDYWGQGTTVTVSS
VL: ETTLTQSPAFMSATMGDKVTISCMTSTDINDDMNWYQQKPGEPPILIIQEGNTLRPGIPPRFSGSGYGTDFTFTINNMLSEDAADYFCLQTDNLPLTFGGGTKLE

From EP4800035A1
